From the supplement of paper PMC8551327 come the findings set out here.

Where a name gives a salt, the structure may show the parent alone. The list shows a part of the results. No stated cut-off is given here; in the data, active = 1.25 or more and inactive = the rest. Many values rest on one well or one pass, so single values are uncertain.

In the assay the test system is Kcc2-LUC knock-in mouse primary cortical neurons (Kcc2 promoter reporter). Put plainly: Kcc2 promoter-driven luciferase activity relative to vehicle control (fold of vehicle (ratio)); higher = stronger Kcc2 promoter activation (Kcc2 expression enhancer). Conditions: 100 nM; 48 h.
Regarding `CN(C)/N=N/c1[nH]cnc1C(N)=O` [Dacarbazine], the “Kcc2 promoter-driven luciferase activity” value was inactive: 0.775.
Regarding `CC(=O)OCc1cc(=O)n(C)c2c3c4c(cc12)c(C)cc(=O)n4CO3` [Nybomycin Acetate], the “Kcc2 promoter-driven luciferase activity” value was inactive: 0.84.
As to `COc1cccc(/C=N\NC(=O)C(C)SC(C)C(=O)N/N=C/c2cccc(OC)c2)c1` (configuration not stated), the “Kcc2 promoter-driven luciferase activity” value was inactive: 0.46.
With `COc1cc2c3c(c1OC)-c1cc4c(cc1CC3(C#N)N(C(=O)c1ccccc1)CC2)OCO4` (configuration not stated) the figure was inactive: 1.09.
With `COC(=O)C(=O)C(C(=O)Nc1cccc(C)c1C)C1Sc2ccccc2NC1=O` (configuration not stated), the “Kcc2 promoter-driven luciferase activity” value was inactive: 1.24.
As for `O=C1C(=O)c2ccccc2C(O)=C1CCCc1ccc(Oc2ccccc2)cc1` [4-hydroxy-3-[3-(4-phenoxyphenyl)propyl]naphthalene-1,2-dione], the “Kcc2 promoter-driven luciferase activity” value is inactive: 0.72.
Take `CN(NC1=NCCO1)c1ccc2ccccc2c1` [2-(2-Methyl-2-(2-naphthyl)hydrazino)-4,5-dihydro-1,3-oxazole]: the “Kcc2 promoter-driven luciferase activity” value is inactive: 0.88.
For the compound `CCN(CC)CCCC(C)Nc1c2ccc(Cl)cc2nc2ccc(OC)cc12` (configuration not stated) [Quinacrine hydrochloride], the “Kcc2 promoter-driven luciferase activity” value was inactive: 0.33.
The figure for `O=C1C=C(NCCc2ccccc2)c2ccccc2C1=O` [4-(2-phenylethylamino)naphthalene-1,2-dione] is inactive: 0.52; for `O=C1c2ccccc2C(=O)c2sc(Nc3ccc(Cl)cc3)nc21` [2-(4-Chloroanilino)benzo[f][1,3]benzothiazole-4,9-dione] it is inactive: 0.87; for `CN1CC[C@]23c4ccccc4N[C@H]1[C@]21CCN(C)[C@H]3Nc2ccccc21` [Calycanthine] it is inactive: 0.75.
In the case of `CC[C@H](CO)Nc1nc(NCc2ccccc2)c2ncn(C(C)C)c2n1` [Seliciclib], the “Kcc2 promoter-driven luciferase activity” value is inactive: 0.821.
As to `C=C1C(=O)O[C@H]2[C@H]1[C@H](OC(=O)/C(C)=C\C)C[C@](O)(CCl)[C@@H]1[C@H](OC(C)=O)C=C(C)[C@]21O` [Eupachlorin Acetate], the “Kcc2 promoter-driven luciferase activity” value is inactive: 0.995.
In the case of `CC/C(=C(\c1ccccc1)c1ccc(OCCN(C)C)cc1)c1ccccc1` [Tamoxifen Citrate], the “Kcc2 promoter-driven luciferase activity” value is active: 1.25.
The figure for `O=C1NC(c2cccc3ccccc23)Nc2ccc(Cl)cc21` (configuration not stated) [6-Chloro-2-naphthalen-1-yl-2,3-dihydro-1H-quinazolin-4-one] is inactive: 1.1; for `O=C1c2ccccc2C(=O)c2sc(Nc3ccc(Cl)c(Cl)c3)nc21` [2-(3,4-dichloroanilino)benzo[f][1,3]benzothiazole-4,9-dione] it is inactive: 0.93.
Turning to `OCCNCCN1CCN(CCCN2c3ccccc3Sc3ccc(C(F)(F)F)cc32)CC1` [Ethanol, trihydrochloride], the “Kcc2 promoter-driven luciferase activity” value is inactive: 1.02.
Consider `O=C1C(CN2CCCCC2)CCCC1CN1CCCCC1` (configuration not stated) [2,6-Bis(piperidin-1-ylmethyl)cyclohexan-1-one], for which the “Kcc2 promoter-driven luciferase activity” value was inactive: 0.81.
Take `CCOC(=O)c1sc2[n+](c1C)C(=O)/C(=C/c1ccc([N+](=O)[O-])cc1)S2`: the “Kcc2 promoter-driven luciferase activity” value is inactive: 0.85.
As for `COc1c2c(c(OC)c3c1c(=O)c1ccccc1n3C)OCO2` [Melicopidine], the “Kcc2 promoter-driven luciferase activity” value is inactive: 1.18.
In the case of `C[C@@H]1[C@H](O)[C@@H](C)/C=C/C=C/C=C/C=C/C=C/C=C/C=C/[C@H](O[C@@H]2O[C@H](C)[C@@H](O)[C@H](N)[C@@H]2O)C[C@@H]2O[C@](O)(C[C@@H](O)C[C@@H](O)[C@H](O)CC[C@@H](O)C[C@@H](O)CC(=O)O[C@H]1C)C[C@H](O)[C@H]2C(=O)O` [Amphotericin B], the “Kcc2 promoter-driven luciferase activity” value is inactive: 1.06.
As for `NC1(C(=O)O)CCCC1` [Cycloleucine], the “Kcc2 promoter-driven luciferase activity” value was inactive: 0.86.
With `CC[C@]12CN3CCc4c([nH]c5ccccc45)[C@@](C(=O)OC)(c4cc5c(cc4OC)N(C)[C@H]4[C@@](O)(C(=O)OC)[C@H](OC(C)=O)[C@]6(CC)C=CCN7CC[C@]54[C@@H]76)C[C@@H](C3)[C@H]1O2` [Vinleurosine sulfate], the “Kcc2 promoter-driven luciferase activity” value is inactive: 0.01.
On to `CCCCOc1ccc(NC(N)=Nc2ccc(Cl)cc2)cc1` [1-(4-Butoxyphenyl)-2-(4-chlorophenyl)guanidine], for which the “Kcc2 promoter-driven luciferase activity” value is inactive: 1.11.
As to `O=c1cccccc1O` [Tropolone], the “Kcc2 promoter-driven luciferase activity” value was inactive: 1.23.
Regarding `CC(=O)OCCN1c2ccccc2Sc2cnccc21` [2-Pyrido[3,4-b][1,4]benzothiazin-5-ylethyl acetate], the “Kcc2 promoter-driven luciferase activity” value is inactive: 0.77.
Turning to `NC(=S)N/N=C/c1ccc(OC(=O)COc2ccccc2Cl)cn1`, the “Kcc2 promoter-driven luciferase activity” value was active: 1.4.
